The values below are quoted from earlier work in paper PMC9683570.

Structures are written as SMILES. Counter-ions that a name gives are not always drawn.

The test system of this data set is hCaV1.2, β2, α2δ. The settings on record: read-out: IC50 (phasic block); phasic or inactivated channel block, ambient temperature, 0.1 Hz.

For the compound `CCC(=O)C(CC(C)N(C)C)(c1ccccc1)c1ccccc1` (racemic) [Methadone, (±)-methadone hydrochloride], the half-inhibitory concentration (IC50) is 7.7 µM.

The term IC50 denotes the midpoint of a concentration-inhibition curve.
